Primary screen of a compound library

By UniProt entry, the sequences of proteins in these tests, tags left out. Residues count along the entry.
UniProt P9WPC5, whole entry: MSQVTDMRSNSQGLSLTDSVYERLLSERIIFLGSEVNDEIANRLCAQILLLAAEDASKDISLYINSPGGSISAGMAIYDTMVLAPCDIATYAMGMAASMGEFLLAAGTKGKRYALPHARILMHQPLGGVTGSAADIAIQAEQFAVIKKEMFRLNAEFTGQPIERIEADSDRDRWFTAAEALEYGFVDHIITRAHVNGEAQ
UniProt P9WPC3, whole entry partner: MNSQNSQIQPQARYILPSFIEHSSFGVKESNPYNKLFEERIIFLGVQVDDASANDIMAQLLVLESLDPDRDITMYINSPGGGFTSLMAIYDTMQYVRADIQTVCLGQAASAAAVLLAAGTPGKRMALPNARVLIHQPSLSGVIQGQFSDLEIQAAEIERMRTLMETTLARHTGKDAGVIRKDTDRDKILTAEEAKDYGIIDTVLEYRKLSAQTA
UniProt Q4DA54, 1-478: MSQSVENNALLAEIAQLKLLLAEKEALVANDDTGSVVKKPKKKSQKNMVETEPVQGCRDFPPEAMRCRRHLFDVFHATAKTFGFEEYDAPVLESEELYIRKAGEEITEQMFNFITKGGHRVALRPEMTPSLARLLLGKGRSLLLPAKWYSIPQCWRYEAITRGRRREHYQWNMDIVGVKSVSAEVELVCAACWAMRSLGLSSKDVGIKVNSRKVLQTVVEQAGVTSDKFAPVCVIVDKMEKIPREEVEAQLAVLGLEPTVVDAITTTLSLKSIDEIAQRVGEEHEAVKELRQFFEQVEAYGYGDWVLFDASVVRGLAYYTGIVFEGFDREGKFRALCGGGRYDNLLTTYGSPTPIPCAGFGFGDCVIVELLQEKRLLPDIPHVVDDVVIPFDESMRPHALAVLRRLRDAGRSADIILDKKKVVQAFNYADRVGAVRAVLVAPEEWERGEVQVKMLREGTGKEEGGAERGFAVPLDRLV
UniProt I6X8D2, whole entry: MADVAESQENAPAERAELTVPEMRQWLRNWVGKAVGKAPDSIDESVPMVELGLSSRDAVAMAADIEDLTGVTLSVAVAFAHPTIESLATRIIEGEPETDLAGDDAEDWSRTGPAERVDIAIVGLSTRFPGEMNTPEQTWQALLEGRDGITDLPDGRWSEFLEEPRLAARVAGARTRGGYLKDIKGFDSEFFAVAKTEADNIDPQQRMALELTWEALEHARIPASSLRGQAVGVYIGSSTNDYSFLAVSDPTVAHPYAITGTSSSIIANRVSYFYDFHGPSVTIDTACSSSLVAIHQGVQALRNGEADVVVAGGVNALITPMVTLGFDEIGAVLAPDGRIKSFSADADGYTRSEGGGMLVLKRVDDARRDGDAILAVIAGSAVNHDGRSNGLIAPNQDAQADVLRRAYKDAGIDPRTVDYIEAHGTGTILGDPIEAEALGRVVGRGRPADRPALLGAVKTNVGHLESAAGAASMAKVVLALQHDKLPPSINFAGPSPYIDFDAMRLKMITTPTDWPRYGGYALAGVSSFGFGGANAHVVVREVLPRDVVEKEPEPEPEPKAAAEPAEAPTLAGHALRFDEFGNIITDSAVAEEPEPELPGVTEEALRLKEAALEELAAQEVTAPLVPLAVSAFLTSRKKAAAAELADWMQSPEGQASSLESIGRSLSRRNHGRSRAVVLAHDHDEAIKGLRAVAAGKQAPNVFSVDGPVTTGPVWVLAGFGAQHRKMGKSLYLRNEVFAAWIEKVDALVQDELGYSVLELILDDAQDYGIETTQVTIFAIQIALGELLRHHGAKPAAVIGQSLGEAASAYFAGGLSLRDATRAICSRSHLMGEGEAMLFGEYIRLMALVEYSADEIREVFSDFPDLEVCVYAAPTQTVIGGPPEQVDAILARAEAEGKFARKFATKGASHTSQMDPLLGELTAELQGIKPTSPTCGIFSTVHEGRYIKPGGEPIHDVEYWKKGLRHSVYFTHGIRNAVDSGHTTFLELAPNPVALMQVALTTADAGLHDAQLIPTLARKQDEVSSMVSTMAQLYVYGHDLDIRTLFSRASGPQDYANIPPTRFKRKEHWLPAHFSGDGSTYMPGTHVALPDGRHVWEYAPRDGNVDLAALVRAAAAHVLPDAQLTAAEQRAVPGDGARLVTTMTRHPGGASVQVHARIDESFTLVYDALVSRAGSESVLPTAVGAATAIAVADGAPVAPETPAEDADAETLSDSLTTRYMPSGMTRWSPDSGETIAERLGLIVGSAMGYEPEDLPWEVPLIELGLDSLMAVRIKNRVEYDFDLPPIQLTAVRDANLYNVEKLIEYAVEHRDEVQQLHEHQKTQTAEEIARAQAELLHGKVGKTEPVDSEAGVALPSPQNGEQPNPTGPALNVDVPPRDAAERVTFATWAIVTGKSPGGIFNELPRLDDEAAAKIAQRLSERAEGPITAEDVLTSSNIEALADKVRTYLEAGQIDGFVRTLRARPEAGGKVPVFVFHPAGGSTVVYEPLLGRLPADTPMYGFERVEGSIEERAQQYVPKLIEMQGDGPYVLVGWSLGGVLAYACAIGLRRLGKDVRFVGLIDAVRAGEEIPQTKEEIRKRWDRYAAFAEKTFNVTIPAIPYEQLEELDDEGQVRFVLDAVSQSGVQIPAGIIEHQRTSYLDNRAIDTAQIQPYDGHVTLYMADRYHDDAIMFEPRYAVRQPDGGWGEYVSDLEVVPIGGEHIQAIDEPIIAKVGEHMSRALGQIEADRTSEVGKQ
UniProt Q8IDJ8, 1-583: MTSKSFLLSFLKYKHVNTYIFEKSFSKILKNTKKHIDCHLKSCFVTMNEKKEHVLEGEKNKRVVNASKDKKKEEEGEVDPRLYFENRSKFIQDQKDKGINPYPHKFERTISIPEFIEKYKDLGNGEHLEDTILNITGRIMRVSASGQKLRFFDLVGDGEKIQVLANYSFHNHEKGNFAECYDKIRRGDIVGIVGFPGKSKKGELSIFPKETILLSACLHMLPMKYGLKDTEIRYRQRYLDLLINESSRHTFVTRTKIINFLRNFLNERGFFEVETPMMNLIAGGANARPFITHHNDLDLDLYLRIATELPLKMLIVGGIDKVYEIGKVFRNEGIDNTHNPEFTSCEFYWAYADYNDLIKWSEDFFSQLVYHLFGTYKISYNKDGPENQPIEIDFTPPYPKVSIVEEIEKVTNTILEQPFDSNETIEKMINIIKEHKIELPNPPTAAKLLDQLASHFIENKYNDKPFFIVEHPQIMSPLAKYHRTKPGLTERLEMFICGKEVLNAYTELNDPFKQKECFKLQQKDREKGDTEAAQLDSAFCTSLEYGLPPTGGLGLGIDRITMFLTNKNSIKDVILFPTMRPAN

Data taken from ChEMBL document CHEMBL3988442, “University of Dundee, Small-Polar-MMV Screening Library” (2021).

Each number is a percent effect as filed. How 0% and 100% were set is not recorded. Most values in the screen are low, and negative values occur. Compounds were drawn at random from those tested, without regard to their results. A dash means the value is not listed here; it may have been measured.

ClpP1P2: 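ClpP1P2, Mycobacterium tuberculosis (UniProt P9WPC5 and UniProt P9WPC3). Protease assay of ClpP1P2, read by the AMC dye that it sets free. Concentration: 50 µM. Higher reads as stronger inhibition, judged from the few compounds that gave an IC50. Most other retested compounds had strongly negative values. Of about 69,000 compounds tested this way, about 10 (0.015%) reached 50% or more in at least one test.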
Toxoplasma: 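Assay of Toxoplasma gondii numbers, read through their beta-galactosidase reporter with a colour substrate. Tested at 10 µM. Higher reads as fewer parasites (inferred from which compounds were picked for retests). Size under these conditions: about 67,000 compounds, about 260 of them at 50% or above in at least one test.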
TcHisRS: 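Enzyme assay of histidyl-tRNA synthetase; the read-out is not stated. Target: Histidine-tRNA ligase, Trypanosoma cruzi CL Brener (UniProt Q4DA54). Tested at 30 µM. The record gives no direction; compounds that gave an IC50 in retests scored well above the rest, so higher reads as stronger inhibition. Size under these conditions: about 69,000 compounds, about 31 of them at 50% or above in at least one test.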
Pks13 thioesterase: 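Polyketide synthase Pks13, Mycobacterium tuberculosis (UniProt I6X8D2). Enzyme assay of the thioesterase domain of polyketide synthase 13; the read-out is not stated. Tested at 30 µM. The record gives no direction; the compounds picked for IC50 retests had high values, so higher reads as stronger inhibition. Size under these conditions: about 67,000 compounds, about 300 of them at 50% or above in at least one test.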
PfKRS1: 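Enzyme assay of the cytosolic lysyl-tRNA synthetase in 384-well plates, read by luminescence. Target: Lysine-tRNA ligase, Plasmodium falciparum 3D7 (UniProt Q8IDJ8). Concentration: 30 µM. Higher reads as stronger inhibition, judged from the few compounds that gave an IC50. Size under these conditions: about 69,000 compounds, about 49 of them at 50% or above in at least one test.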

structure	ClpP1P2	Toxoplasma	TcHisRS	Pks13 thioesterase	PfKRS1
O=C(CCN1CCOC(C(F)(F)F)C1)NCc1cccc(Cl)c1 (stereo not drawn)	-24.47	-7.823	5.946	-11.16	0.6202
CCn1c(SCC(=O)N2CCOCC2)nc2cc(C)[nH]c2c1=O	5.231	1.716	2.439	11.11	-2.056
CC(C)(C)n1cc(C#N)cc1NC(=O)CCS(=O)(=O)C1CCCC1	1.222	-33.74	9.091	-	1.607
CC(Nc1cccc2c1OCCO2)C(=O)Nc1cccc(C#N)c1 (stereo not drawn)	-10.77	5.444	2.212	-19.5	3.05
CN(C)CCN1C(=O)CCCC12CCCN(Cc1cccs1)C2 (stereo not drawn)	-9.294	-	3.883	-30.01	-0.6898
CCCN1CC2(CCN(C)CC2)CC1C(=O)NCCn1cccn1 (stereo not drawn)	8.492	2.489	4.082	-11.12	4.179
CN(C)CCn1c2c(ccc1=O)CC(NC(=O)c1cnccn1)CC2 (stereo not drawn)	16.62	-	4.444	2.422	5.188
CN1C(=O)CC(c2ccccc2)C12CCN(c1ncc(F)cn1)CC2 (stereo not drawn)	-2.566	-15.68	7.216	-7.036	6.014
Cl.N#Cc1cccnc1OC1CCNCC1	-	-18.55	-	-	-
CS(=O)(=O)NCc1ccc2c(c1)CCC2	-4.972	-2.982	3.175	-5.43	8.222
CS(=O)(=O)N1C[C@H]2CCCN(Cc3cccs3)[C@H]2C1	10.79	-	-2.151	-15.21	-5.547
COc1ccccc1NC(=O)c1[nH]nc(C(C)C)c1Br	6.762	5.609	-0.6369	-46.71	2.043
O=S(=O)(C1CC1)N1CCc2onc(COc3ccccn3)c2C1	2.717	-	7.595	10.89	0.6511
Cc1ccc(C(=O)NC2CCN(CC(=O)N(C)c3ccccc3)CC2)o1	-6.524	-4.805	5.78	-0.5666	1.455
CCN1CCCC1CNCc1cc2cc(OC)c(OC)cc2[nH]c1=O (stereo not drawn)	-238.8	-	6.923	33.79	0.6393
COc1ccc(NC2CCc3c2[nH]c(=O)n(C2CCCCC2)c3=O)cc1 (stereo not drawn)	-8.005	3.058	1.754	-0.4781	1.794
CCN(C)c1ncnc2c1CCN(C(=O)c1cccn1C)CC2	7.179	-0.9613	5.102	-33.14	-2.029
Cc1ccc(F)c(NCc2ccc(C(=O)N(C)C)[nH]2)c1	3.066	8.523	0	-15.92	3.191
CC(C)c1nc(CNc2ccc(N3CCC(CO)CC3)cn2)cs1	12.46	-3.728	-10.33	-7.776	7.817
CC(O)CN1CCN(C(=O)c2ccc(N(C)C)nn2)CC1 (stereo not drawn)	1.997	4.553	-1.527	-1.202	0.4521
Cn1ncc(N2CCOC(CCNC(=O)CO)C2)cc1=O (stereo not drawn)	31.67	4.537	8.081	5.081	2.253
CCn1cc(NC(=O)C2CCN(CC(=O)NC3CCCC3)CC2)cn1	-29.25	-48.97	5.202	-6.599	2.033
O=C(O)c1ccn(-c2ccccc2NS(=O)(=O)c2cccc(F)c2)n1	-3.153	-8.372	5	6.304	2.676
CN(C)CCOCC1CN(Cc2ccc(F)cc2)Cc2nnn(C)c21 (stereo not drawn)	-10.41	-	8.411	-19.07	5.116
COc1cc(C)cc(-c2nc3c([nH]2)CCNC3)c1OC	3.833	-5.26	7.303	-2.301	2.179
CCn1ccnc1CN1CCN(CCCS(C)(=O)=O)CC1C (stereo not drawn)	-2.063	21.84	0.4484	-16.39	8.88
[H][C@@]12CN(Cc3nccn3C)C(=O)N1CCN(S(=O)(=O)c1ccccc1)C2	-	17.43	-	-	-
CN1N=C(C(=O)N2CCCC(CCc3c(F)cccc3F)C2)CCC1=O (stereo not drawn)	-15.21	-3.001	0	-9.267	-1.364
COCCNC(=O)CCNc1ccc(Cl)cn1	-9.395	-7.99	11.11	-1.888	4.69
CC(C)CC(=O)NC[C@H]1CC[C@H](C(c2ccccn2)N(C)C)CC1 (stereo partly drawn)	-7.587	-12.04	6.202	1.814	1.76
c1cc(OCc2ccc3c(c2)OCCO3)ccc1CNC1CC1	19	-	4.348	-19.98	-6.953
[H][C@]12CC[C@]([H])(CN(S(=O)(=O)N(C)C)C1)N(CCC(=O)NCc1ccco1)C2	-	-11.28	-	-	-
CN(C)CC1(O)CCN(S(=O)(=O)c2cccc(F)c2)C1 (stereo not drawn)	5.63	8.301	11.11	7.329	3.266
Cc1cc(=O)n(C)cc1NC(=O)Cc1cc(F)ccc1F	-4.31	7.97	57.92	-	69.06
[H][C@@]12CC(=O)/C(=C(\C)NC(=O)c3ccccn3)[C@]1([H])C2(C)C	-	34.76	-	-	-
O=C(O)CSc1nnc(-c2ccco2)n1-c1ccccc1C(F)(F)F	-13.63	27.43	5.051	-16.17	9.313
O=C(NCCNc1ccccn1)NC1CCCC1	0.5568	1.536	4.433	-15.58	5.364
[H][C@@]12CCN(c3ncccn3)C[C@]1([H])[C@@H](CN(C)Cc1cccnc1)OC2	-	-22.02	-	-	-
COc1cc(NC(=O)C2CC(=O)N(c3cccc(Br)c3)C2)ncn1 (stereo not drawn)	16.11	-8.494	6.186	-12.29	7.662
Cn1c(-c2ccccc2)nn(CCNS(=O)(=O)c2ccccc2Cl)c1=O	-13.85	0	5.155	-8.139	8.205
COc1ccc(-c2cc(CNc3ncnc4c3CCNCC4)no2)cc1	-8.453	5.898	4.95	34.96	-6.858
COc1ccc2[nH]c(C(=O)NCC3(N)CCCC3)cc2c1	-9.207	1.694	6.818	3.302	2.381
CCN(CC)S(=O)(=O)NCC1COc2ccccc2O1 (stereo not drawn)	-10.64	2.295	2.762	-4.014	-5.032

The last 4 entries again:

structure	ClpP1P2	Toxoplasma	TcHisRS	Pks13 thioesterase	PfKRS1
Cn1c(-c2ccccc2)nn(CCNS(=O)(=O)c2ccccc2Cl)c1=O	-13.85	0	5.155	-8.139	8.205
COc1ccc(-c2cc(CNc3ncnc4c3CCNCC4)no2)cc1	-8.453	5.898	4.95	34.96	-6.858
COc1ccc2[nH]c(C(=O)NCC3(N)CCCC3)cc2c1	-9.207	1.694	6.818	3.302	2.381
CCN(CC)S(=O)(=O)NCC1COc2ccccc2O1 (stereo not drawn)	-10.64	2.295	2.762	-4.014	-5.032